Source: PubChem BioAssay AID743266 (National Center for Advancing Translational Sciences (NCATS), 2014)
Screen size: about 410,000 compounds; about 310 (0.076%) were called active. This list was built around the results that the source calls inconclusive (neither active nor inactive); the mix of calls is not that of the screen. Calls come from the whole dose curve; as a rule, active = well fitted activation curve with a large enough effect; inconclusive = small, poorly fitted or top-dose-only effect, or another doubt; inactive = no such curve, though single readings can be large or run the other way. Potencies of inconclusive entries are doubtful fits and often do not repeat.

Sequences of proteins named here, by UniProt entry; tags and fusion partners are left off. A change or cut given only in a name is not applied to a line headed by its entry.
UniProt Q03431: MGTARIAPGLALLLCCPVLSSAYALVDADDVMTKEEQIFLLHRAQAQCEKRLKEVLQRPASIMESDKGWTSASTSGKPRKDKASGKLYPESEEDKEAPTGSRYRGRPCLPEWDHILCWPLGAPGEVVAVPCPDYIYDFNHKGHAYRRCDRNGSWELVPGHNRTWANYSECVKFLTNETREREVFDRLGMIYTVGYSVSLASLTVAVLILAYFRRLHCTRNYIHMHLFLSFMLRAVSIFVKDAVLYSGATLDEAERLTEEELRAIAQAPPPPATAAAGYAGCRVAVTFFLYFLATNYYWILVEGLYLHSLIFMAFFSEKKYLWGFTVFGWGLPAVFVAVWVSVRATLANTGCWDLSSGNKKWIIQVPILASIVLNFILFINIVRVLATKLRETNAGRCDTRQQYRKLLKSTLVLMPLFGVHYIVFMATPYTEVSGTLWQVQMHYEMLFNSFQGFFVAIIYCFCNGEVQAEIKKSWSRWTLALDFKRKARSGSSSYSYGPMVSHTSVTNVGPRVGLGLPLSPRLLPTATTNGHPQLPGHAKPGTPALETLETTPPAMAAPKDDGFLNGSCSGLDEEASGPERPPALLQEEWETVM

Each compound was assayed against Parathyroid hormone/parathyroid hormone-related peptide receptor (Homo sapiens) (UniProt Q03431) (assay: qHTS for PTHR1 Agonists: Primary Screen). Conditions: HEK293 GP2 PTHR1 cells, GloSensor cAMP luminescence, 1 h; activation: at 115 µM (top of the series) unless noted; series mostly up to 115 µM.
Source text: The goal of the proposed studies is to discover new compounds that act as potent agonists on the parathyroid hormone receptor type-1 (PTHR1). The PTHR1 plays critical roles in maintaining blood calcium and phosphate levels, as well as in controlling bone remodeling. PTHR1 agonists could thus be useful for treating diseases such as hypoparathyroidism and osteoporosis. In the former disease, an agonist drug would help maintain normal blood calcium and phosphate levels under conditions of parathyroid hormone deficiency. In the latter disease, an agonist drug would stimulate new bone formation and thus reduce the risk of fracture, under conditions of bone fragility, as occurs in aging.
To that end, we performed a quantitative high-throughput screening (qHTS) of the Molecular Libraries Probe Centers Network (MLPCN) compound libraries at the NIH Chemical Genomics Center (NCGC) for the parathyroid hormone receptor type-1 (PTHR1) using a unique HEK-293-derived cell line (GP2) that expresses the PTHR1 and a glosensor cAMP reporter construct.
NIH Molecular Libraries Probe Production Centers Network [MLPCN]
NIH Chemical Genomics Center [NCGC]
Assay Submitter (PI): Thomas Gardella, Massachusetts General Hospital
4 microL are dispensed into a 1536-well micro plate to yield 3,000 cells/well. The plates are then incubated overnight, after which 4 microL of 0.5 mM of BIoTium Luciferin plus 0.5 mM IBMX are added. They are then incubated at 37 degree for one hour before 23 nL of compounds are added through pinning and then incubated at 37 degree again for another hour. After the plates are kept at room temperature for 15 min before they are read on the ViewLux to measure luminescence.
Note: nearly all actives have a fitted effect of over 55% in size.
Potency is the fitted concentration of half-maximal effect.

Structure (SMILES) | activation | Potency | outcome
O=C(NCC(c1cccnc1)N1CCOCC1)Oc1ccccc1 (stereo unspecified) | inconclusive: 40% [activator] [at 57.5 µM] |  | 
CN1CCc2nc(SC(C(=O)O)c3ccccc3)c(C#N)c(-c3cccs3)c2C1 (stereo unspecified) |  | inconclusive: 79.4 µM [activator, partial curve, poor fit] | 
Cc1ccc(C)c(Cn2c(C(=O)O)c(C=O)c3ccccc32)c1 | inactive: -0.994% |  | 
CC(=O)N1N=C2C3CCN(CC3)C2C1c1ccc(Br)cc1 (stereo unspecified) |  | inconclusive: 141 µM [activator, single point] | 
Cc1ccc(N2C(=O)NC(=O)/C(=C/C=C/c3ccco3)C2=O)cc1 | inactive: -16.6% |  | 
CC(C)CCC1(CCc2ccncc2)C(=O)NC(=O)NC1=O |  | inconclusive: 31.6 µM [activator, single point] | 
Cc1ccccc1NC(=O)CCl | inactive: -7.49% |  | 
N#Cc1ccccc1Cn1cc(C(=O)C2CC2)c2ccccc21 |  | inconclusive: 0.891 µM [activator, full curve, poor fit] | 
CCCCNC(=O)c1c(N)n(Cc2ccc3c(c2)OCO3)c2nc3ccccc3nc12 |  | inconclusive: 50.1 µM [activator, single point] | 
CN1CCc2nc3sc(C(=O)NC(C)(C)C)c(N)c3cc2C1 | inactive: 23.3% |  | 
O=c1c2ccccc2nc(-c2ccccc2)n1-c1cccnc1 | inactive: -6.81% [at 57.5 µM] |  | 
CCCNC(=O)N1CCC2(CC1)OCCO2 |  | inconclusive: 5.01 µM [activator, full curve, poor fit] | 
COc1ccc2c(c1O)[C@]13CCN(C)[C@H](C2)[C@@H]1CCC(=O)C3 |  | inconclusive: 141 µM [activator, single point] | 
CC1CCCCC1NC(=O)Cn1nnc2ccccc2c1=O (stereo unspecified) |  | inconclusive: 17.8 µM [activator, partial curve] | 
COc1ccc(C2SCC(=O)Nc3c2c(=O)[nH]n3C2CCCCCC2)cc1 (stereo unspecified) | inconclusive: -42.1% [activator] [at 57.5 µM] |  | 
CCN1CCN(P2(=O)C=C(c3ccccc3)OC(c3ccccc3)=C2)CC1 |  | inconclusive: 141 µM [activator, partial curve, poor fit] | 
CCCNC(=O)NC(=O)COc1ccc(-c2ccc(C#N)cc2)cc1 |  | inconclusive: 126 µM [activator, single point] | 
O=C1NC(=O)C2(Cc3ccccc3N3CCCC32)C(=O)N1c1cccc(Cl)c1 (stereo unspecified) |  |  | inactive [at 57.5 µM]
COc1cc(OC)cc(C(=O)Nc2ccc(Cl)cc2C(=O)c2ccccc2Cl)c1 |  |  | inactive
CCC(=NCCCO)c1c(O)n(-c2ccc(OC)cc2)c(=O)[nH]c1=O |  | inconclusive: 3.55 µM [activator, partial curve, poor fit] | 
CCOc1ccccc1CN1C2CCC1CC(c1ccc(C)cc1)C2 (stereo unspecified) |  | inconclusive: 112 µM [activator, single point] | 
CCNC(=O)[C@H]1O[C@@H](n2cnc3c(N)ncnc32)[C@H](O)[C@@H]1O | inactive: -24.2% |  | 
Cc1ccc(C(=O)C2CN(C)CC2C(=O)c2ccc(C)cc2)cc1 (stereo unspecified) |  |  | inactive [at 57.5 µM]
O=[N+]([O-])c1ccc(C2[C@H]3C(c4ccccc4)=NC4(CCCCC4)N23)cc1 (stereo partly specified) |  | inconclusive: 3.55 µM [activator, full curve, poor fit] | 

Random excerpt: four entries already listed.
Structure (SMILES) | activation | Potency | outcome
O=C(NCC(c1cccnc1)N1CCOCC1)Oc1ccccc1 (stereo unspecified) | inconclusive: 40% [activator] [at 57.5 µM] |  | 
CCC(=NCCCO)c1c(O)n(-c2ccc(OC)cc2)c(=O)[nH]c1=O |  | inconclusive: 3.55 µM [activator, partial curve, poor fit] | 
CC(=O)N1N=C2C3CCN(CC3)C2C1c1ccc(Br)cc1 (stereo unspecified) |  | inconclusive: 141 µM [activator, single point] | 
O=C1NC(=O)C2(Cc3ccccc3N3CCCC32)C(=O)N1c1cccc(Cl)c1 (stereo unspecified) |  |  | inactive [at 57.5 µM]

Next part.

Structure (SMILES) | activation | Potency | outcome
CN1CCC(c2c[nH]c3ccccc23)C1 (stereo unspecified) |  | inconclusive: 112 µM [activator, partial curve, poor fit] | 
C[n+]1c(-c2ccccc2)cc(-c2ccc(Cl)cc2)cc1-c1ccccc1 | inactive: -17.9% |  | 
CC(C)CN(C(=O)CN1CC=C(c2ccccc2)CC1)c1c(N)n(CC(C)C)c(=O)[nH]c1=O | inactive: -46.4% |  | 
Cc1ccccc1CN1CCN(Cc2ccccc2)CC1 |  | active: 44.7 µM | 
Cc1ccc(Sc2ccc(C=C3C(=O)N(C)C(=O)N(C)C3=O)o2)cc1 |  |  | inactive
O=C(CSC1c2ccccc2-c2ccccc21)N/N=C/c1ccccc1O |  | inconclusive: 39.8 µM [activator, single point] | 
CC(C)NS(=O)(=O)c1ccc(OCC(=O)N2CCN(Cc3ccccc3)CC2)c(Cl)c1 | inconclusive: -74.9% [activator] [at 57.5 µM] |  | 
COC(=O)C1=C(c2cc3ccccc3o2)C[C@@H]2CC[C@H]1N2C(=O)NCCCOC(C)C |  |  | inactive
O=C(NN1C(=O)C2C3C=CC(C4CC34)C2C1=O)c1ccc(Br)cc1 (stereo unspecified) | inactive: -40.7% |  | 
CCOC(=O)[C@]12Cc3c(cc(OC)c(OC)c3OC)[C@H]1N(C)C(=O)c1ccccc12 | inactive: -15.5% |  | 
CC(=O)OC1CC[C@@]2(C)C(=CC(=O)C3C4CCC(OC(C)=O)[C@@]4(C)CCC32)C1 (stereo partly specified) |  | inconclusive: 35.5 µM [activator, single point] | 
NC(=O)CN1CCCC1=O | inconclusive: 5.3% [activator] |  | 
O=C1NC(=O)N(Cc2cccs2)C(=O)/C1=C/c1ccc(N2CCOCC2)cc1 | inactive: -7.91% |  | 
CN1CC[C@@]2(C)c3cc(O)ccc3N(C)[C@@H]12 |  | inconclusive: 7.08 µM [activator, partial curve] | 
O=C(Oc1ccccc1)c1cccc(COC(=O)c2cnccn2)c1 |  | inconclusive: 15.8 µM [activator, partial curve] | 
C[C@]12CCC3C(CC[C@H]4C[C@@H](O)CC[C@]34C)C1C[C@@H](O)C2=O (stereo partly specified) |  | inconclusive: 79.4 µM [activator, partial curve, poor fit] | 
CCOC(=O)C1C(=O)N(C)C2(C)CC1c1cc(OC)ccc1O2 (stereo unspecified) |  | inconclusive: 3.98 µM [activator, single point] | 
c1cc(CCN2CCCC2)ccn1 |  | inconclusive: 39.8 µM [activator, partial curve, poor fit] | 
Cc1cc(N2C(=O)C3CCCN3C2c2ccccc2)no1 (stereo unspecified) |  | inconclusive: 39.8 µM [activator, single point] | 
Cc1ccc(-c2[nH]c(=S)[nH]c(=O)c2C#N)cc1 |  | inconclusive: 39.8 µM [activator, single point] | 
COc1ccc(OC)c(NC(=O)Cn2c(=O)oc3ccccc32)c1 |  | inconclusive: 35.5 µM [activator, single point] | 
CC[C@@]1(O)C(=O)OCc2c1cc1n(c2=O)Cc2cc3c(N)cccc3nc2-1 |  | active: 44.7 µM | 
CNCC(O)c1ccc(OC(=O)C(C)(C)C)c(OC(=O)C(C)(C)C)c1 (stereo unspecified) |  | inconclusive: 2 µM [activator, full curve] | 
CCN(CC)c1ccc(N=Cc2c(O)n(-c3cc(OC)ccc3OC)c(=O)[nH]c2=O)cc1 |  |  | inactive [at 57.5 µM]

Structure (SMILES) | activation | Potency | outcome
CCCCn1c(O)c(C(C)=NCCN2CCCCC2)c(=O)[nH]c1=O | inconclusive: 86.3% [activator] [at 57.5 µM] |  | 
COc1ccc(CNC(=O)Cn2c(SCC(=O)Nc3ccc(C)c(C)c3)nc3ccccc32)cc1 |  | inconclusive: 89.1 µM [activator, partial curve, poor fit] | 
O=C(C[n+]1ccn(CCCNP2(=O)C=C(c3ccccc3)OC(c3ccccc3)=C2)c1)c1ccccc1 |  | inconclusive: 89.1 µM [activator, single point] | 
CCOC(=O)C1SC2(C(F)F)CC1(O)c1c(c(OC)c3occc3c1OC)O2 (stereo unspecified) | inconclusive: 30.3% [activator] [at 57.5 µM] |  | 
CCn1ccnc1CN1CCCC(C(=O)c2cc(Cl)ccc2OC)C1 (stereo unspecified) | inactive: -84.6% |  | 
CC(C)Sc1nnc(OC(=O)N(C)C)n1-c1ccccc1 |  | inconclusive: 141 µM [activator, single point] | 
CCOc1ccccc1NC(=O)Cn1c(=O)oc2ccccc21 |  | inconclusive: 89.1 µM [activator, single point] | 
O=[N+]([O-])NC1=NCN(Cc2ccco2)CN1Cc1ccco1 | inconclusive: 25.4% [activator] |  | 
Nc1ccc(Br)cc1 |  | inconclusive: 35.5 µM [activator, partial curve, poor fit] | 
CC(=O)NC1N=C(C)N(c2ccccc2)C1=O (stereo unspecified) |  | inconclusive: 3.98 µM [activator, single point] | 
CC1Cc2ccccc2N1NC(=O)c1ccc(Cl)c(S(N)(=O)=O)c1 (stereo unspecified) |  | inconclusive: 56.2 µM [activator, partial curve, poor fit] | 
CC(C(=O)c1ccccc1)N1C(=O)c2ccccc2C1=O (stereo unspecified) | inactive: -9.66% |  | 
CC12CCC3c4ccc(O)c([N+](=O)[O-])c4CCC3C1CCC2=O (stereo unspecified) | inactive: -39.4% |  | 
CCOC(=O)c1c(NS(=O)(=O)c2ccccc2)n(CCCOC)c2nc3ccccc3nc12 | inactive: -48.3% |  | 
CC(C)(C)NCC(O)c1cc(Cl)c(N)c(Cl)c1 (stereo unspecified) |  | inconclusive: 1.58 µM [activator, full curve, poor fit] | 
COc1ccc(OCC(=O)N2CCN(CCc3ccncc3)CC2)cc1 |  | inconclusive: 126 µM [activator, single point] | 
Cc1ccccc1-n1c(/C=C/c2c(C)[nH]c3ccccc23)nc2ccccc2c1=O |  |  | inactive
O=C1NC(=O)C(Nc2ccccc2)C(=O)N1 |  | inconclusive: 28.2 µM [activator, single point] | 
COc1ccc(C=O)cc1 |  | inconclusive: 1.12 µM [activator, full curve] | 
O=C(OCC(=O)c1ccc([N+](=O)[O-])cc1)/C(=C\c1ccc(Cl)cc1)NC(=O)c1ccccc1 |  | inconclusive: 17.8 µM [activator, partial curve, poor fit] | 
COc1ccc(-n2c(Cc3cccc([N+](=O)[O-])c3)nc3ccccc3c2=O)cc1 |  | inconclusive: 50.1 µM [activator, partial curve, poor fit] | 
Cn1cc(/C=C2\C(=O)NC(=O)N(c3ccccc3)C2=O)c2ccccc21 | inactive: -80.4% |  | 
CC(=O)NN1C(=O)c2ccccc2NC1c1cccnc1 (stereo unspecified) |  | inconclusive: 112 µM [activator, single point] | 
